This is one part of the list. Most values lie at the level of the controls, where differences are scatter.

The chains behind the UniProt entries cited, without tags or fusion partners. Where a name states a change or a piece, a line headed by the entry shows the natural chain unless it says otherwise.
UniProt Q9Z2E9: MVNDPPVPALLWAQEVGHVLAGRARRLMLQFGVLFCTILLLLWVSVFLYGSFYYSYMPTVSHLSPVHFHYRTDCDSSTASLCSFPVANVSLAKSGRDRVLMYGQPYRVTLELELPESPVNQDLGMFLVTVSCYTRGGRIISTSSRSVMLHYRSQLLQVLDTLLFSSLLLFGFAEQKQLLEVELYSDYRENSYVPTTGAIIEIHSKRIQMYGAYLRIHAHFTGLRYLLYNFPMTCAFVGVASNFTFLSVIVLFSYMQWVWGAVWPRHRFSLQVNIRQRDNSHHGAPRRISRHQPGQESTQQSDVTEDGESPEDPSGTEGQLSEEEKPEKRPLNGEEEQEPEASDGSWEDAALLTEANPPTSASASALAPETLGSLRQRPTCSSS
UniProt Q9Z1D1, whole entry: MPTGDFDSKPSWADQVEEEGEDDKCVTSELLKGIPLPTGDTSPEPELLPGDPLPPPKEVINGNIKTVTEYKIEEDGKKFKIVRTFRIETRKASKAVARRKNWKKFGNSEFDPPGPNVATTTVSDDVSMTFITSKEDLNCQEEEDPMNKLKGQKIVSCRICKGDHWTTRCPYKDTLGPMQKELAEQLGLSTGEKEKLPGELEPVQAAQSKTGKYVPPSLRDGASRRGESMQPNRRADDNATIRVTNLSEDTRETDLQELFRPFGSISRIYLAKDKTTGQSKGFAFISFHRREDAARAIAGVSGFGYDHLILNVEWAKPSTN
UniProt Q9Z2M7: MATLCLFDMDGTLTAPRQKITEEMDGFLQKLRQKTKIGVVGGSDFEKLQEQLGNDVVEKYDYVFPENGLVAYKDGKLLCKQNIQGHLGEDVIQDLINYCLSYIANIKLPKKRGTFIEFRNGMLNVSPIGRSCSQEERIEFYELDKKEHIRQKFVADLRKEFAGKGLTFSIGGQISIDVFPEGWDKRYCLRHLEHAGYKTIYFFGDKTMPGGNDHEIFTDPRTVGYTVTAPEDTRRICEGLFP
UniProt Q9Z1Z2: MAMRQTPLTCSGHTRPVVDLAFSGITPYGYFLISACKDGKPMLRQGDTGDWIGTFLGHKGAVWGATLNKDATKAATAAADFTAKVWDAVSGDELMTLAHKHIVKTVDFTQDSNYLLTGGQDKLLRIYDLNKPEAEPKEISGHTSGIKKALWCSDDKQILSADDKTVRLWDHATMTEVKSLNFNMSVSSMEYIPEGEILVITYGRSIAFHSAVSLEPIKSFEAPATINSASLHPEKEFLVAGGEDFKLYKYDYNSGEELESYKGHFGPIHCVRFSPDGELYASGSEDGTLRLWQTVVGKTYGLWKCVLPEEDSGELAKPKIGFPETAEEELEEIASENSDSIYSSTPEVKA
UniProt Q9Z0G7: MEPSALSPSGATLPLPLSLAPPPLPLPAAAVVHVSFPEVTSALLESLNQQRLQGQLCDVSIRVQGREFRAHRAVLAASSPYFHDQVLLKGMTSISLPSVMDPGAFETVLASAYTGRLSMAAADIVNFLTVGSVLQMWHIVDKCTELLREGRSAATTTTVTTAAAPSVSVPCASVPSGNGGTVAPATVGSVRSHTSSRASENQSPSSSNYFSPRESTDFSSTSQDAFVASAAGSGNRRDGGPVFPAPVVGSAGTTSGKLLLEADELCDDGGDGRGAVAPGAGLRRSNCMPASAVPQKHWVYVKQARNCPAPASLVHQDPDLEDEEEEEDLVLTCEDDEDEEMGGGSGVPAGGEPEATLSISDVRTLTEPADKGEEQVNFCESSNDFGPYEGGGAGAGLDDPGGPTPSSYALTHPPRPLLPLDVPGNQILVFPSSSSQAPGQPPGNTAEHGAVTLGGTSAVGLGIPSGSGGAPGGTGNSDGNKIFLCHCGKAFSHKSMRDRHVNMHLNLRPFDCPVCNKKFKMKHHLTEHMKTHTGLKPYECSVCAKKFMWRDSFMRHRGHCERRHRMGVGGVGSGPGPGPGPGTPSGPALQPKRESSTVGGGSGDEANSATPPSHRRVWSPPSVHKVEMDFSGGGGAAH
UniProt Q9Z2N8, whole entry: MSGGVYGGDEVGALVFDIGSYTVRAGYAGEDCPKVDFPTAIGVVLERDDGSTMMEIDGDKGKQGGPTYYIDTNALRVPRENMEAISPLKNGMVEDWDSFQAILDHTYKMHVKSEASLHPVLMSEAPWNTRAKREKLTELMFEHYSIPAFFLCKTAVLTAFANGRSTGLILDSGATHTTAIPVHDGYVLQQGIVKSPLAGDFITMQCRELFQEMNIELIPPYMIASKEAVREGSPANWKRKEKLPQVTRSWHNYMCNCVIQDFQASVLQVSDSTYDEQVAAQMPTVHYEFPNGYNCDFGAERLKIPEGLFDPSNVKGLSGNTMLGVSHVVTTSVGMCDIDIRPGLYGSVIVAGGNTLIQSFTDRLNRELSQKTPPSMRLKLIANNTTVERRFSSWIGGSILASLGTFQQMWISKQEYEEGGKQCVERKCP
UniProt Q9Z266: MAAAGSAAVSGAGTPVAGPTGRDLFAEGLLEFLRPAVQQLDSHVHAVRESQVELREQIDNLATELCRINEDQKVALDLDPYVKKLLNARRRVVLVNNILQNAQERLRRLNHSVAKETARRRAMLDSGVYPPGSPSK
UniProt Q9Z0U0: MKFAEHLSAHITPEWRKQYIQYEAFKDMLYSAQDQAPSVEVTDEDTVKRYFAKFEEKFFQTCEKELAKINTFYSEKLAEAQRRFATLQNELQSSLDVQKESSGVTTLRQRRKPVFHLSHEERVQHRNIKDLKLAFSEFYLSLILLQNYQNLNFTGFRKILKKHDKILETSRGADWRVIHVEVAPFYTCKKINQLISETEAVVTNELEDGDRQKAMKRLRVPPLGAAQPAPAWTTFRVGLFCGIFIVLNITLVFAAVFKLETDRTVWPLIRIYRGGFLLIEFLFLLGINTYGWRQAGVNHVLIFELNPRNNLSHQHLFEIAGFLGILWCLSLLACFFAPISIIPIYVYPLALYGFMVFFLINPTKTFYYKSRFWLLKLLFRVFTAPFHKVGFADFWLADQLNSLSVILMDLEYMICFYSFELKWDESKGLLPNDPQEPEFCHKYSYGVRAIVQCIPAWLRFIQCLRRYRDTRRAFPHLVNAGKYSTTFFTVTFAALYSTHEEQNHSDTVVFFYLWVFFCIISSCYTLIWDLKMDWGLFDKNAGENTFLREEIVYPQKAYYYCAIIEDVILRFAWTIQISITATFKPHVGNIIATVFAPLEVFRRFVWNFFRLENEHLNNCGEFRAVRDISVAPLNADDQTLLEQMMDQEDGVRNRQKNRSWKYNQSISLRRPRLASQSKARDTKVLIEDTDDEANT
UniProt Q9Z1P6, whole entry: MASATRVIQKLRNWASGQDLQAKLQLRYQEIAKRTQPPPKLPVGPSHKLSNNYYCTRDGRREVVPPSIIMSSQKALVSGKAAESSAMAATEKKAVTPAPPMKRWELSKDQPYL
UniProt Q9Z2S7: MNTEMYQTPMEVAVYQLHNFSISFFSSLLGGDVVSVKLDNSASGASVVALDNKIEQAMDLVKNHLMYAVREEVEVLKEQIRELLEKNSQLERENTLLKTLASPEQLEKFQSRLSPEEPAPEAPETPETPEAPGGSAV
UniProt Q9Z127: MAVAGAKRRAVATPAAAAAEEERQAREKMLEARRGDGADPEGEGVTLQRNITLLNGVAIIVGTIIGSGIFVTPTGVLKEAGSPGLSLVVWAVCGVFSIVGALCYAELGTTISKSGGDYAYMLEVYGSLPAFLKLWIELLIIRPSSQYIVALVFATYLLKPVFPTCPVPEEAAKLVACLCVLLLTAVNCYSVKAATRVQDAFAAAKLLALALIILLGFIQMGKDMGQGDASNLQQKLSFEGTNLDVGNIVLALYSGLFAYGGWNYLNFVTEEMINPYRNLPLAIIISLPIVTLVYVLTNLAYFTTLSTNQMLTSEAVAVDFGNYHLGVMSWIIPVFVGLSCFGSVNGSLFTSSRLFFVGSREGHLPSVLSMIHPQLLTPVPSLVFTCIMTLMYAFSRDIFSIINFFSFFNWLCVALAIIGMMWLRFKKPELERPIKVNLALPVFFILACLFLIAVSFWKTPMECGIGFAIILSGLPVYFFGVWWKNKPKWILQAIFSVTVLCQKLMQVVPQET
UniProt Q9Z2X2: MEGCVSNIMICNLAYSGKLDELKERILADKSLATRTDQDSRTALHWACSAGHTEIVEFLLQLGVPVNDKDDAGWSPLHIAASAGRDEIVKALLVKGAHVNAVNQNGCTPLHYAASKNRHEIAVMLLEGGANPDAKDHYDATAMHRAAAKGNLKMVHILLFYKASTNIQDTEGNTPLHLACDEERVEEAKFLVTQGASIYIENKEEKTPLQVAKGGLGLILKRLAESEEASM
UniProt Q9Z2I9: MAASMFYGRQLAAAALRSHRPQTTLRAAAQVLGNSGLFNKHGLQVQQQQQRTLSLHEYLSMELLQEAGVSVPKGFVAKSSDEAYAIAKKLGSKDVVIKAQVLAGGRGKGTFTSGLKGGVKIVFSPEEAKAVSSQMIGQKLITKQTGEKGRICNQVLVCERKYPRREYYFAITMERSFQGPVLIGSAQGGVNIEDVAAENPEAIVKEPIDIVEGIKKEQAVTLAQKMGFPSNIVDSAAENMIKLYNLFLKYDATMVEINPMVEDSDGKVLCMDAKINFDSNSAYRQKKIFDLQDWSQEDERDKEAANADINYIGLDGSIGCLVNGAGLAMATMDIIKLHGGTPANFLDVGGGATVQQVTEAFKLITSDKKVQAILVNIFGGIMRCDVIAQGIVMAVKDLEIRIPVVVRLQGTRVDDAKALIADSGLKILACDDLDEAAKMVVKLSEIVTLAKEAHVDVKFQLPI
UniProt Q9Z2Z6: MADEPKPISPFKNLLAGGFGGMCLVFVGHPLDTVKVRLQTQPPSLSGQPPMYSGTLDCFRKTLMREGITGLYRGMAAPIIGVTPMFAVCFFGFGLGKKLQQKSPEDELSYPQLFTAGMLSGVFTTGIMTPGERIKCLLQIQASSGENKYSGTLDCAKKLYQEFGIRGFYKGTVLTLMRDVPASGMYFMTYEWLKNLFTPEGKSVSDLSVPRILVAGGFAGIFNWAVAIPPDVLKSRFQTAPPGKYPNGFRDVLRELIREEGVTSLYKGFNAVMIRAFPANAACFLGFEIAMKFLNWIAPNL
UniProt Q9Z2Q5: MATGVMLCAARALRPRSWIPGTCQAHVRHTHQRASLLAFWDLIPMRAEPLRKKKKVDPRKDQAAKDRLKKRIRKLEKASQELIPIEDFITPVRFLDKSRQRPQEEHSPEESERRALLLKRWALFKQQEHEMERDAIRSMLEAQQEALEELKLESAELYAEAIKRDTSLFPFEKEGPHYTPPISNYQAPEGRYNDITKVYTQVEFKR
UniProt Q9Z247: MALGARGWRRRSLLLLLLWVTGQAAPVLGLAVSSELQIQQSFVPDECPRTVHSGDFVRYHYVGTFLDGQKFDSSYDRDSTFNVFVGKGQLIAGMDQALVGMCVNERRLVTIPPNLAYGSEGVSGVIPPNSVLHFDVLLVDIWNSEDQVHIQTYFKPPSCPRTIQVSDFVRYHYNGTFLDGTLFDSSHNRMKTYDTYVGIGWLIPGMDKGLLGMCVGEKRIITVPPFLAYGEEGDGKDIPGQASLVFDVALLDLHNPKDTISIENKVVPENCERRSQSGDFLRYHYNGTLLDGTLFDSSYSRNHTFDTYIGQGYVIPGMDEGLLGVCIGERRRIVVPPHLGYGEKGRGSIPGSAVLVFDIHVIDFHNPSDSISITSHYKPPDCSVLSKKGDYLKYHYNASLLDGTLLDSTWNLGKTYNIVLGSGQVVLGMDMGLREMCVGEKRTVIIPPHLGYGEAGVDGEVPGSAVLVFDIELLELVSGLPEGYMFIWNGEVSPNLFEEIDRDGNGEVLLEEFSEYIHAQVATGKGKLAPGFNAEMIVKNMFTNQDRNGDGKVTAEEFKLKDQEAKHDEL
UniProt Q9Z1R4: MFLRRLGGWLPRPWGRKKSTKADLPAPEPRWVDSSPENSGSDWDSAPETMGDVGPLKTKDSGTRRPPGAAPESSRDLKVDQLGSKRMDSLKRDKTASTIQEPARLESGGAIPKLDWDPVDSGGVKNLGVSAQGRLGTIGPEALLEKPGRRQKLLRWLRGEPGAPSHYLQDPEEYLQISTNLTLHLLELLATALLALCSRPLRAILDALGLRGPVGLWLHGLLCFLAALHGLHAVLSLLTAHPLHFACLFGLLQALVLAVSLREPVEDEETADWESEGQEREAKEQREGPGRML

Compound in the test: CN[C@@H]1C[C@H]2O[C@@](C)([C@@H]1OC)n1c3ccccc3c3c4c(c5c6ccccc6n2c5c31)C(=O)NC4 [staurosporine]
The test can be described thus: log2 fold change of tryptic peptide abundance, ligand vs vehicle (limited proteolysis) (log2 ratio); higher = more trypsin-susceptible (destabilized). Conditions: ligand concentration: 20 uM; sample: mouse liver crude lysate; replicate design: treated separately.
Take “UniProt Q9WVE8 (peptide sequence: ASLMNEDFEK, peptide start residue: 102)”: the log2 fold change is -0.371.

On to “UniProt Q9Z2E9 (peptide sequence: DNSHHGAPR, peptide start residue: 278)”, for which the log2 fold change is 0.0619.

Turning to “UniProt Q9Z1D1 (peptide sequence: EVINGNIK, peptide start residue: 58)”, the log2 fold change was -0.217.

Take “UniProt Q9Z2M7 (peptide sequence: QKFVADLR, peptide start residue: 151)”: the log2 fold change was 0.21.

On to “UniProt Q9Z108 (peptide sequence: AQGFQVEYK, peptide start residue: 409)”, for which the log2 fold change was found to be 0.141.

In the case of “UniProt Q9Z1Z2 (peptide sequence: AATAAADFTAK, peptide start residue: 74)”, the log2 fold change was -0.492.

For the target “UniProt Q9Z0G7 (peptide sequence: SNCMPASAVPQK, peptide start residue: 285)”, the log2 fold change is -0.464.

As to “UniProt Q9Z2N8 (peptide sequence: EGSPANWK, peptide start residue: 231)”, the log2 fold change is -0.126.

Regarding “UniProt Q9Z0H7 (peptide sequence: GLDTLVESIR, peptide start residue: 78)”, the log2 fold change is -0.264.

As to “UniProt Q9Z266 (peptide sequence: VALDLDPYVK, peptide start residue: 74)”, the log2 fold change is -0.352.

As for “UniProt Q9Z0U0 (peptide sequence: YNQSISLR, peptide start residue: 662)”, the log2 fold change was found to be 0.09.

As for “UniProt Q9Z1Z0 (peptide sequence: DSLIENLK, peptide start residue: 757)”, the log2 fold change is -0.512.

In the case of “UniProt Q9Z1P6 (peptide sequence: AAESSAMAATEKK, peptide start residue: 81)”, the log2 fold change is 0.0615.

Turning to “UniProt Q9Z2S7 (peptide sequence: TLASPEQLEK, peptide start residue: 99)”, the log2 fold change turned out to be 0.0615.

As for “UniProt Q9Z127 (peptide sequence: EKMLEAR, peptide start residue: 27)”, the log2 fold change is -0.491.

Consider “UniProt Q9Z2B5 (peptide sequence: LHDGNHYVNK, peptide start residue: 824)”, for which the log2 fold change was -0.282.

“UniProt Q9Z2G1 (peptide sequence: GAVYADSGNFER, peptide start residue: 382)”: the log2 fold change is 0.174.

With “UniProt Q9Z2X2 (peptide sequence: DHYDATAMHR, peptide start residue: 136)”, the log2 fold change was 0.222.

On to “UniProt Q9Z2D6 (peptide sequence: KPGSVVAAAAAEAKK, peptide start residue: 271)”, for which the log2 fold change was -0.574.

Consider “UniProt Q9Z2I9 (peptide sequence: GRICNQVLVCERK, peptide start residue: 149)”, for which the log2 fold change is -0.284.

Take “UniProt Q9Z315 (peptide sequence: ADKNVELR, peptide start residue: 300)”: the log2 fold change is -0.261.

“UniProt Q9Z1D7 (peptide sequence: AFIQMSELTEH, peptide start residue: 491)”: the log2 fold change was -0.0587.

In the case of “UniProt Q9Z1R2 (peptide sequence: AAGARPLTSPESLSR, peptide start residue: 1095)”, the log2 fold change was -0.221.

For the target “UniProt Q9Z2Z6 (peptide sequence: FQTAPPGKYPNGFR, peptide start residue: 237)”, the log2 fold change was 0.295.

On to “UniProt Q9WVM3 (peptide sequence: EQKYEDGIALLR, peptide start residue: 455)”, for which the log2 fold change is 0.229.

As for “UniProt Q9Z1N9 (peptide sequence: VAHVQQMK, peptide start residue: 590)”, the log2 fold change is -0.285.

In the case of “UniProt Q9Z280 (peptide sequence: IVDETDMK, peptide start residue: 540)”, the log2 fold change is -0.0622.

As for “UniProt Q9Z2A7 (peptide sequence: TSVGDGYWDLR, peptide start residue: 66)”, the log2 fold change stood at 0.266.

For the target “UniProt Q9Z2Q5 (peptide sequence: VYTQVEFKR, peptide start residue: 198)”, the log2 fold change was found to be 0.793.

For “UniProt Q9Z247 (peptide sequence: LAPGFNAEMIVK, peptide start residue: 528)”, the log2 fold change is 0.0688.

As to “UniProt Q9Z2K1 (peptide sequence: ADLEMQIENLR, peptide start residue: 231)”, the log2 fold change stood at 0.0735.

For the target “UniProt Q9WVS7 (peptide sequence: YRDTLGHGNGGTVYK, peptide start residue: 168)”, the log2 fold change is -0.652.

As to “UniProt Q9Z1R4 (peptide sequence: LDWDPVDSGGVK, peptide start residue: 114)”, the log2 fold change is -0.0824.

For “UniProt Q9Z204 (peptide sequence: IVGCSVHK, peptide start residue: 43)”, the log2 fold change was -0.27.

The values above are taken from the supplement of paper PMC12819154, “High-throughput peptide-centric local stability assay extends protein–ligand identification to membrane proteins, tissues and bacteria” (Nature Structural & Molecular Biology, 2025).
